Data reported in US20220016215A1, “GIP RECEPTOR AGONIST PEPTIDE COMPOUNDS AND USES THEREOF” (TAKEDA PHAARMACEUTICAL COMPANY LIMITED, priority 2018, published 2022).
Part of at least one peptide drawing is inferred or uncertain, most often the ends. Some entries share one result that the patent states for a list of compounds. Starred links: 1 amine or outer side, 2 acyl side, 3 side chain; linkers in the order of their positions; H or OH if unused. Non-standard residues stand in square brackets, D forms with d. Residues, ends and D or L forms follow the SMILES beside them. Groups on a side chain read outwards from the residue. *: point of attachment. C15 diacid = O=C(O)CCCCCCCCCCCCCC(=O)*; γGlu = O=C(O)[C@H](CCC(=O)[*:2])N[*:1]; AEEA = NCCOCCOCC(=O)O; Aib = CC(C)(N)C(=O)O

By UniProt entry, the sequences of proteins in these tests, tags left out. Residues count along the entry.
UniProt P43220, 24-463: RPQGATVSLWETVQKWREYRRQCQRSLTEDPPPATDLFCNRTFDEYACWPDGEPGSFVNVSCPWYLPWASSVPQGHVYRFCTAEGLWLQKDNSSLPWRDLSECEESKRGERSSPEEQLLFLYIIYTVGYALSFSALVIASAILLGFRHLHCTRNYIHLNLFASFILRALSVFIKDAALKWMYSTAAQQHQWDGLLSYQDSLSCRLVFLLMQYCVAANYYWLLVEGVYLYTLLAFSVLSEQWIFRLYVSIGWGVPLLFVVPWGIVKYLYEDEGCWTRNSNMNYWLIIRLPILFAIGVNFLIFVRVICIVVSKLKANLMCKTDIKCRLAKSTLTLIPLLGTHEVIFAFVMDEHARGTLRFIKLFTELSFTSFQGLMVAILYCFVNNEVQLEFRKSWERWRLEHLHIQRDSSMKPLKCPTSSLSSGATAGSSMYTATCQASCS

What was measured:
[1] = biological target: T1, human GIPR (Homo sapiens, UniProt P48546); assay: Agonist activity on human GIPR, CRE-luciferase reporter assay (increase in intracellular cAMP as indicator); format: cell-based; settings: hGIPR/CRE-LUC/CHO-K1 cells, 4 h incubation
T1 construct: expressed in transfected cells
T1 sequence (P48546 22-466): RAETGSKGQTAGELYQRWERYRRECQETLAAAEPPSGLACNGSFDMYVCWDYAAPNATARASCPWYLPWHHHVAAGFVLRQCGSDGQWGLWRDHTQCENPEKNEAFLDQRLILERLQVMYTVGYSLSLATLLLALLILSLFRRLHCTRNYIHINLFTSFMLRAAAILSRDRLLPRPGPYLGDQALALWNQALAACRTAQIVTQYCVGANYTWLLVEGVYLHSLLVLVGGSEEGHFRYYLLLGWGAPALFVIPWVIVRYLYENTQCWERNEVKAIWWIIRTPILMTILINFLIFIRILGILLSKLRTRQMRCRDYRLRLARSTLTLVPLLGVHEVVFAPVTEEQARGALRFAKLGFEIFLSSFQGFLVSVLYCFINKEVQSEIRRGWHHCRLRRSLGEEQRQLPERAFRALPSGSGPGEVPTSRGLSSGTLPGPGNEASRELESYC
Source text: (§1) The human GIPR gene having an identical sequence to Genebank Accession No. U39231 is cloned into a pMSRα-neo vector to prepare hGIPR/pMSRα-neo.
(2) Construction of Reporter Plasmid Expressing Cell
Luciferase reporter gene with a cAMP-responsive sequence located upstream is transferred to a CHO-K1 cell to construct a CRE-LUC/CHO-K1 cell.
(4) Transfer of Human GIPR Gene to CRE-LUC/CHO-K1 Cell and Obtaining of Expressing Cell
The plasmid hGIPR/pMSRα-neo obtained in (1) is transferred to the CRE-LUC/CHO-K1 cell obtained in (2) to obtain a transformant. Subsequently, the cell line inducing the luciferase expression, hGIPR/CRE-LUC/CHO-K1 cell, is selected from the obtained transformant by adding GIP.
25 μL each of the hGIPR/CRE-LUC/CHO-K1 cell is inoculated in a 384-well white plate (Corning) in such a way as to provide 5×10^3 cells/well and may be cultured in a HamF12 medium containing 10% fetal bovine serum, 100 U/mL penicillin, and 100 μg/mL streptomycin in a CO2 incubator at 37° C. overnight. 5 μL of a medium containing a test compound is added to the cells and incubated for 4 hours at the indicated concentration in a CO2 incubator at 37° C. Steady-Glo (Promega) is added in amounts of 30 μL and shaken under light shielding. Twenty minutes later, luciferase activity is measured using a plate reader Envision (PerkinElmer). The GIPR agonist activity is calculated with increase in intracellular cAMP concentration as the indicator when the luciferase activity in the presence of 10 nM of GIP was 100% and the luciferase activity in the case of adding DMSO instead of the test compound was 0%.

[2] = biological target: human GLP-1R (Homo sapiens, UniProt P43220); assay: Agonist activity on human GLP-1R, CRE-luciferase reporter assay (increase in intracellular cAMP as indicator); format: cell-based; design: expressed in transfected cells; settings: hGLP-1R/CRE-luc/CHO-K1 cells, 4 h incubation; for EC50: read-out: GLP1R EC50 nM (B)
Source text: as §1
(3) Construction of Reporter Plasmid
Four copies of a cAMP responsive sequence and a Zeocin resistance gene are transferred to pGL3(R2.2)-Basic Vector (Promega) to construct a Cre-luc(Zeo) reporter plasmid.
(5) Construction of Expression Plasmid of Human GLP-1R Gene
The human GLP-1R gene having an identical sequence to Genebank Accession No. NM_002062 is cloned into a pIRESneo3 vector to prepare hGLP-1/pIRESneo3.
(6) Transfer of Human GLP-1R Gene and Reporter Plasmid to CHO-K1 Cell and Obtaining of Expressing Cell
The Cre-luc (Zeo) obtained in (3) and the plasmid hGLP-1/pIRESneo3 obtained in (5) transferred to the CHO-K1 cell to obtain a transformant. Subsequently, the cell line inducing the luciferase expression, hGLP-1R/CRE-luc/CHO-K1 cell, is selected from the obtained transformant by adding GLP-1.
The GLP-1R agonist activity is assayed in the same manner as above using the hGLP-1R/CRE-luc/CHO-K1 cell.

[3] = system: Y2R agonist-induced emesis in dogs; format: in vivo, dog; settings: 30 nmol/kg s.c.
Procedure: Example 8 PYY-1119-Induced Vomiting in Dogs
Emetic episodes were counted for 2 hours after administration (by blinded analysis).
Emetic episodes were counted for 2 hours after Y2R agonist administration (by blinded analysis).

[4] = female beagle dogs, Y2R agonist 10 μg/kg s.c. at 8 hours postdose
[5] = female beagle dogs, Y2R agonist 10 μg/kg s.c. at 8 hours postdose, counted for 2 hours

Row | Compound | EC50 [1] [nM] | GIPR pEC50 [1] | GLP1R pEC50 [2] | EC50 [2] [nM] | Anti-emetic effects in animal models of emesis (dogs) (in words) ([3]; dogs, Tables 16 and 17) | Duration of emesis [3, 4] [min] | Latency period of emesis [3, 4] [min] | No. of animals that did not vomit [3, 5] | No. of emetic episodes [3, 5] | No. of emetic episodes, % Inhibition ([3]; female beagle dogs, Y2R agonist at 8 hours postdose, decreased ratio of mean emetic episodes vs vehicle group) | Inhibition of the number of emetic episodes ([3]; dogs, Tables 16 and 17)
1 | CC[C@H](C)[C@H](NC(=O)[C@H](CCCCN)NC(=O)[C@H](CC(=O)O)NC(=O)[C@H](CC(C)C)NC(=O)[C@H](CCC(=O)O)NC(=O)[C@@H](NC(=O)[C@H](CO)NC(=O)[C@H](Cc1ccc(O)cc1)NC(=O)[C@H](CC(=O)O)NC(=O)[C@H](CO)NC(=O)[C@@H](NC(=O)[C@H](Cc1ccccc1)NC(=O)[C@@H](NC(=O)CNC(=O)[C@H](CCC(=O)O)NC(=O)C(C)(C)NC(=O)[C@@H](N)Cc1ccc(O)cc1)[C@@H](C)O)[C@@H](C)CC)[C@@H](C)CC)C(=O)N[C@@H](C)C(=O)N[C@@H](C)C(=O)N[C@@H](CCC(N)=O)C(=O)N[C@@H](CC(=O)O)C(=O)N[C@@H](Cc1ccccc1)C(=O)N[C@H](C(=O)N[C@@H](CCC(=O)O)C(=O)N[C@@H](Cc1c[nH]c2ccccc12)C(=O)N[C@@H](CC(C)C)C(=O)N[C@@H](CC(C)C)C(=O)N[C@@H](C)C(=O)NCC(=O)N1CCC[C@H]1C(=O)N[C@@H](CO)C(=O)N[C@@H](CO)C(=O)NCC(=O)N[C@@H](C)C(=O)N1CCC[C@H]1C(=O)N1CCC[C@H]1C(=O)N1CCC[C@H]1C(=O)N[C@@H](CO)C(=O)N[C@@H](CCCCNC(=O)COCCOCCNC(=O)COCCOCCNC(=O)CC[C@H](NC(=O)CCCCCCCCCCCCCC(=O)O)C(=O)O)C(N)=O)[C@@H](C)CC [Compound 21] (H-Y[Aib]EGTFISDYSIELDKIAAQDFIEWLLAGPSSGAPPPSK([AEEA-AEEA-γGlu-C15 diacid])-NH2; N-terminus assumed) | 0.004 | 11.46 | 6.39 | 407 |  |  |  |  |  |  | 
2 | CC[C@H](C)[C@H](NC(=O)[C@H](CCCCN)NC(=O)[C@H](CC(=O)O)NC(=O)[C@H](CC(C)C)NC(=O)[C@H](CCC(=O)O)NC(=O)[C@H](CCCCNC(=O)COCCOCCNC(=O)COCCOCCNC(=O)CC[C@H](NC(=O)CCCCCCCCCCCCCC(=O)O)C(=O)O)NC(=O)[C@H](CO)NC(=O)[C@H](Cc1ccc(O)cc1)NC(=O)[C@H](CC(=O)O)NC(=O)[C@H](CO)NC(=O)[C@@H](NC(=O)[C@H](Cc1ccccc1)NC(=O)[C@@H](NC(=O)CNC(=O)[C@H](CCC(=O)O)NC(=O)C(C)(C)NC(=O)[C@@H](N)Cc1ccc(O)cc1)[C@@H](C)O)[C@@H](C)CC)C(=O)N[C@@H](C)C(=O)N[C@@H](CCC(N)=O)C(=O)N[C@@H](CCCNC(=N)N)C(=O)N[C@@H](C)C(=O)N[C@@H](Cc1ccccc1)C(=O)N[C@H](C(=O)N[C@@H](CCC(=O)O)C(=O)N[C@@H](Cc1c[nH]c2ccccc12)C(=O)N[C@@H](CC(C)C)C(=O)N[C@@H](CC(C)C)C(=O)N[C@@H](C)C(=O)N[C@@H](CCC(N)=O)C(=O)NCC(=O)N1CCC[C@H]1C(=O)N[C@@H](CO)C(=O)N[C@@H](CO)C(=O)NCC(=O)N[C@@H](C)C(=O)N1CCC[C@H]1C(=O)N1CCC[C@H]1C(=O)N1CCC[C@H]1C(=O)N[C@@H](CO)C(N)=O)[C@@H](C)CC [Compound 22] (H-Y[Aib]EGTFISDYSK([AEEA-AEEA-γGlu-C15 diacid])ELDKIAQRAFIEWLLAQGPSSGAPPPS-NH2; N-terminus assumed) | 0.001 | 12.00 | 8.14 | 7.24 | significant anti-emetic effects | 0.5 ± 0.6 | 66.8 ± 61.5 | 2 | 1.3 ± 1.5 | [82.8%] | 
3 | CC[C@H](C)[C@H](NC(=O)[C@H](CO)NC(=O)[C@H](Cc1ccc(O)cc1)NC(=O)[C@H](CC(=O)O)NC(=O)[C@H](CO)NC(=O)[C@@H](NC(=O)[C@H](Cc1ccccc1)NC(=O)[C@@H](NC(=O)CNC(=O)[C@H](CCC(=O)O)NC(=O)C(C)(C)NC(=O)[C@@H](N)Cc1ccc(O)cc1)[C@@H](C)O)[C@@H](C)CC)C(=O)N[C@@H](C)C(=O)N[C@@H](CC(C)C)C(=O)N[C@@H](CC(=O)O)C(=O)N[C@@H](CCCCN)C(=O)N[C@H](C(=O)N[C@@H](CCCCNC(=O)COCCOCCNC(=O)COCCOCCNC(=O)CC[C@H](NC(=O)CCCCCCCCCCCCCC(=O)O)C(=O)O)C(=O)N[C@@H](CCC(N)=O)C(=O)N[C@@H](CCC(N)=O)C(=O)N[C@@H](CC(=O)O)C(=O)N[C@@H](Cc1ccccc1)C(=O)N[C@H](C(=O)N[C@@H](CC(N)=O)C(=O)N[C@@H](Cc1c[nH]c2ccccc12)C(=O)N[C@@H](CC(C)C)C(=O)N[C@@H](CC(C)C)C(=O)N[C@@H](C)C(=O)N[C@@H](CCC(N)=O)C(=O)N[C@@H](CCCNC(=N)N)C(=O)N1CCC[C@H]1C(=O)N[C@@H](CO)C(=O)N[C@@H](CO)C(=O)NCC(=O)N[C@@H](C)C(=O)N1CCC[C@H]1C(=O)N1CCC[C@H]1C(=O)N1CCC[C@H]1C(=O)N[C@@H](CO)C(N)=O)C(C)C)[C@@H](C)CC [Compound 30] | < 0.001 |  | 6.40 | 398 |  |  |  |  |  |  | 
4 | YAibEGTFISDYSIALDK(Lys-(ethylene glycol)2-C15 diacid)HQQDFVNWLLAQRG-OH [Compound 26] |  |  |  |  |  |  |  |  |  |  | at least 80%
